{"sequences": {"note": "The chains behind the UniProt entries cited, without tags or fusion partners. Residues count along the entry.", "UniProt P05067, 672-711": "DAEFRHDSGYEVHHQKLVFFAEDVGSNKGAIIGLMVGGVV"}, "source": "patent US12590130B2", "about": "“Bipartite molecules and uses thereof in treating diseases associated with abnormal protein aggregates” (ACADEMIA SINICA, priority 2014, dated 2026)", "molecular_target": "T1, Aβ40 (Homo sapiens, UniProt P05067)", "T1 construct": "made in house; host or cells: chemical synthesis (Fmoc solid phase)", "experiment": "Inhibition of Aβ40 fibrillization (CD, TEM, 1:1 mixture)", "type": "biochemical", "note": "Not every detail of the peptide structures is certain; ends, links or a residue may be inferred. Ends that are not written are not given here.", "data": [{"substance": "RRRRRRRRGSNKGAIIGLM-NH2 [R8-Aβ(25-35)]", "values": [{"measurement": "lag time of Aβ40 amyloidogenesis", "setting": "1:1 mixture with Aβ40, CD at 218 nm", "value": "largely increase the lag time"}, {"measurement": "TEM images of peptide mixtures with Aβ40", "setting": "1:1 mixture, long time incubation", "value": "hybrids of fibrils and amorphous aggregates"}]}]}
